Test results: patent US7919495B2, “Pyridyl non-aromatic nitrogen-containing heterocyclic-1-carboxylate compound” (Astellas Pharma, Inc., priority 2005, dated 2011)

Amino acid sequences for entries named in this document (tags omitted).
UniProt O00519, whole entry: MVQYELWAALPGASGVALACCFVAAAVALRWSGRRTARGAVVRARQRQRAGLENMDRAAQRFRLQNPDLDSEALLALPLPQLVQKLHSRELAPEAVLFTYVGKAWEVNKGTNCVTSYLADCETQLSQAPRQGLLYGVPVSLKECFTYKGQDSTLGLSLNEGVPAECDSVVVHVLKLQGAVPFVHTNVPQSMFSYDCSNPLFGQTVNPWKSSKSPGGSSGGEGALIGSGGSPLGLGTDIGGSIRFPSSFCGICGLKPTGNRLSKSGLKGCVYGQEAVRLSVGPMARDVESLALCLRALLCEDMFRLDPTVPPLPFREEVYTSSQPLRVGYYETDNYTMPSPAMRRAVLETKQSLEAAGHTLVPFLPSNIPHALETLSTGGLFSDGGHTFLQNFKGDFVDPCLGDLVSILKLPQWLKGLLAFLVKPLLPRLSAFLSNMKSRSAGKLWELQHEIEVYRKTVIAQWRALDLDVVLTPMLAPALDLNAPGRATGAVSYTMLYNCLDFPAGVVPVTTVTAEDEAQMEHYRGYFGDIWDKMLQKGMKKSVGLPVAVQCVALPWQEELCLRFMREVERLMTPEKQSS

Molecular target: FAAH in human bladder epithelial cancer-derived cell line 5678 cells (Homo sapiens, UniProt O00519)
Test: Screening for FAAH activity-inhibiting substance with human bladder epithelial cancer-derived cell (IC50, Table 64)
Type: cell-based
Conditions: read-out: cell FAAH IC50

COCc1ccc(OC(=O)N2CCC(Cc3ccccc3)CC2)cn1
pIC50: 9.36

O=C(Oc1cccnc1)N1CCN(CCCCc2ccccc2)CC1
pIC50: 10.00

pIC50: −log10 of the molar value. Structures were worked out from names or drawings and are uncertain.
